PMC7819943, “Rice protein-binding microarrays: a tool to detect cis-acting elements near promoter regions in rice”
This is one part of the list.

Chains of the proteins cited; added tags and fusions are not shown.
UniProt Q0JBA9, entry or part of it: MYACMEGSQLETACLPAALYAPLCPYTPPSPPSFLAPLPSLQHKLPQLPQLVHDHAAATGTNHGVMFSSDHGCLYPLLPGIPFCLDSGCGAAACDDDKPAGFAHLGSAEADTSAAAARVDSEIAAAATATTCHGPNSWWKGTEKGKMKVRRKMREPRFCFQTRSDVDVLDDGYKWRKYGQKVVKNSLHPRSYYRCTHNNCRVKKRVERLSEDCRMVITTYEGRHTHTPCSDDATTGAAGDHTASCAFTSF

Biological target: OsWRKY34 (Oryza sativa, UniProt Q0JBA9 1-250)
Assay: protein-binding microarray (RPBM); PBS, 2% BSA, 51.3 ng/ul salmon testes DNA, 50 uM zinc acetate, 200 nM TF, 25 C, 1 h; high values mean tight binding
Conditions: protein: recombinant; tags: N-terminal polyhistidine and DsRed monomer fusion (pET32a); label: CyDye5-dUTP incorporated in the synthesized complementary strand; 3' TTTTT single-stranded linker to array surface; dsDNA, one strand shown
Procedure, shortened: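 The binding signal is fluorescence intensity per array feature (arbitrary units). Readings came from an Axon 4000B scanner after a washed, 2% BSA-blocked, double-stranded custom Agilent array had been incubated for 1 h at 25 °C with 200 nM protein and 50 µM zinc acetate. The protein was a Ni–NTA-purified transcription factor fused N-terminally to polyhistidine and DsRed, expressed in E. coli BL21-CodonPlus.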

| Sequence | binding signal |
| --- | --- |
| GGGGAGGAATTATGGACTATTTGGATGGGCTTTTTTTACTCGGAGTCACCTAGTGCAG | 8030 fluorescence intensity (a.u.) |
| TTCTGTCAAACTAAGATAAGTGGTGGGCGGTGGAGTTATTCGGAGTCACCTAGTGCAG | 11500 fluorescence intensity (a.u.) |
| CAAGTAATCCAGTGCCTTCATGACCTGCAAATTCTATGCCCGGAGTCACCTAGTGCAG | 9670 fluorescence intensity (a.u.) |
| TTTCCTTCGCGCCAATCCCACCGCGCGCGCCCACAAATACCGGAGTCACCTAGTGCAG | 14200 fluorescence intensity (a.u.) |
| GTGGAGAGTATCTTCTTCTTCTTCTTCTTCTTCTTCTTCTCGGAGTCACCTAGTGCAG | 8430 fluorescence intensity (a.u.) |
| AGTCGGGCATTACGGCAAGGTATCTCTCTCCCGCTGACAACGGAGTCACCTAGTGCAG | 8960 fluorescence intensity (a.u.) |
| ACCGATTTCCCTCCGCCGCAACCGGAGCTCACCTCACCTCCGGAGTCACCTAGTGCAG | 8840 fluorescence intensity (a.u.) |
| TTCTCCTCTTTAATTCTCTGCGCTACAAATATGTATACACCGGAGTCACCTAGTGCAG | 10100 fluorescence intensity (a.u.) |
| TCGAACTATGTTTCTGGAGTTGTTTGTGTTAAAGTCCCAACGGAGTCACCTAGTGCAG | 8860 fluorescence intensity (a.u.) |
| CTCCTATGGGCGGCGGCGGCGGCGGGCGGCGGGCCTATCCCGGAGTCACCTAGTGCAG | 10600 fluorescence intensity (a.u.) |
| TCCGTTTGCCATTACACCACACAGGCACACATGCCACACACGGAGTCACCTAGTGCAG | 9160 fluorescence intensity (a.u.) |
| ATTTCCCGTCCTTGTCCTAAATGAGTACTAATTTTGATTTCGGAGTCACCTAGTGCAG | 10400 fluorescence intensity (a.u.) |
| GCTTGCACCGTCTACTTATCTCAATTCTCAAGCTCTCAGCCGGAGTCACCTAGTGCAG | 10100 fluorescence intensity (a.u.) |
| AATGGTAGAGCAAGGATAGGTTTGTGTGTGTGTGTGTGACCGGAGTCACCTAGTGCAG | 11300 fluorescence intensity (a.u.) |
| ATTCCCATATATATTGCTTTAGTTTTCCTTAATTTTCATCCGGAGTCACCTAGTGCAG | 8830 fluorescence intensity (a.u.) |
| CGCGCCGCGGCGCTCGTCTCGTCTCCCCGGGTTTTTTAAACGGAGTCACCTAGTGCAG | 10800 fluorescence intensity (a.u.) |
| TTTGTTTGTTTTGGGCCTCTACATCTGCACAGGCTCTCTTCGGAGTCACCTAGTGCAG | 10100 fluorescence intensity (a.u.) |
| AGTAACTTTCGTCATTGTCACTATCACCTTCTCAAACGCCCGGAGTCACCTAGTGCAG | 9850 fluorescence intensity (a.u.) |
| TAGGGTTTGGACTTCGTTGCAACCGGCGCTACTTCGCGACCGGAGTCACCTAGTGCAG | 9590 fluorescence intensity (a.u.) |
| TGCTACACACTTTTAAGTATACCCATCTATCCCCTGCTGACGGAGTCACCTAGTGCAG | 8620 fluorescence intensity (a.u.) |
| TAGGTAGTTGGGTGGGTTTAGGATTCGTATGTGGATAACGCGGAGTCACCTAGTGCAG | 11900 fluorescence intensity (a.u.) |

| Sequence | binding signal |
| --- | --- |
| GGAGTGACTTGGACAATCTGTTTACGTCATCTTATTATACCGGAGTCACCTAGTGCAG | 9030 fluorescence intensity (a.u.) |
| GCCTCTGCCCATCGCATCGATCCCCGCCGTCCCTCCACCCCGGAGTCACCTAGTGCAG | 11000 fluorescence intensity (a.u.) |
| GAAAATTTTCCCTCCACACCACTTCAAAAATTTCATCTCTCGGAGTCACCTAGTGCAG | 8800 fluorescence intensity (a.u.) |
| TGCCTGCCTCCACCTCACCTGTCTGCCGCGCGCCAAATATCGGAGTCACCTAGTGCAG | 9280 fluorescence intensity (a.u.) |
| ATTCACCAAACCCCTGAATTACGAGGTCTTGATTGCACCACGGAGTCACCTAGTGCAG | 8220 fluorescence intensity (a.u.) |
| AGCAGTTGTATTGTTGTGAAATTTAATTTGCTCTTTGACCCGGAGTCACCTAGTGCAG | 8200 fluorescence intensity (a.u.) |
| GTCGAAATTTTGGTAATATTGCCAACTTATCAAAATTTTGCGGAGTCACCTAGTGCAG | 8490 fluorescence intensity (a.u.) |
| AGTTGTAAGATAGGTTTGCGTTGGTAGAGGGTAATCCTGACGGAGTCACCTAGTGCAG | 9800 fluorescence intensity (a.u.) |
| ATCACACCCTAAATTGACTGTATTTGTGCTGAATTTTACACGGAGTCACCTAGTGCAG | 8630 fluorescence intensity (a.u.) |
| CCTGAGTCCCAGCCAGTGTGAGTTACTAGTATCTCTTTTCCGGAGTCACCTAGTGCAG | 8290 fluorescence intensity (a.u.) |
| TCCTAGACCTAGTACATTTTCACCAACTCGCCATATTCTACGGAGTCACCTAGTGCAG | 10000 fluorescence intensity (a.u.) |
| GGTGGTGGTGGTGGTGCCGGAGCTGGGGAGAAGAGGAGGACGGAGTCACCTAGTGCAG | 9350 fluorescence intensity (a.u.) |
| GTTCTCAGTTGCTGTTTCTTCCAATGAATATTATGTCTTTCGGAGTCACCTAGTGCAG | 9530 fluorescence intensity (a.u.) |
| ACTTCTGCTAAGCTCCATCTTGCTCGCCACGCGCGTCCACCGGAGTCACCTAGTGCAG | 8860 fluorescence intensity (a.u.) |
| CTCCCTTCGTTTCGAAATGTTTGACGCCGTTGACTTTTTACGGAGTCACCTAGTGCAG | 22800 fluorescence intensity (a.u.) |
| CTTTGTACGATCTGTGTACCAAATCTTTCGTTCTTTTCTTCGGAGTCACCTAGTGCAG | 9260 fluorescence intensity (a.u.) |
| CCTCTCTTTTCTCTTCTCTTCTCGTCTTTCCCATCTCGCGCGGAGTCACCTAGTGCAG | 8850 fluorescence intensity (a.u.) |
| ACTGCTTCCGCTTTTCTTAAGTTTTTAAATTGGCCTATTCCGGAGTCACCTAGTGCAG | 10000 fluorescence intensity (a.u.) |
| TCCTGGCCCAACACCTGCTCCATCCGCCGCTCCTACTCTGCGGAGTCACCTAGTGCAG | 8150 fluorescence intensity (a.u.) |
| AATGGCTCCGCAGCTTGTTTCTAGTCTCCTTAAAACTTACCGGAGTCACCTAGTGCAG | 8700 fluorescence intensity (a.u.) |
| CTCCATCTGCTGCGCCCATCCACTCCACTCTTCCCTCCTCCGGAGTCACCTAGTGCAG | 9360 fluorescence intensity (a.u.) |

Some of the entries above in another layout:
Sequence | binding signal
GCCTCTGCCCATCGCATCGATCCCCGCCGTCCCTCCACCCCGGAGTCACCTAGTGCAG | 11000 fluorescence intensity (a.u.)
AATGGCTCCGCAGCTTGTTTCTAGTCTCCTTAAAACTTACCGGAGTCACCTAGTGCAG | 8700 fluorescence intensity (a.u.)
